PubChem BioAssay AID652272, Drosophila RNAi Screening Center, 2013

Assay: 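Genome-wide knock-down search for components of Hedgehog signalling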 (primary screen)
System: Drosophila clone 8 (Cl8) cells
Reagents: long dsRNA against Drosophila genes
Read-out: 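Plate reader light from a firefly reporter under a ptc promoter fragment that responds to Hedgehog, with Renilla light as transfection reference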
Scale: firefly Hh reporter signal: higher = more ptc reporter light; Renilla reference signal: higher = more Renilla control light
Hit rule: 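Hit when the z-score averaged over two replicates is under -2 or over +3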
Meaning of the calls: active = hit: reporter lowered or raised; inactive = not a hit
In all, the deposit lists about 21,000 reagents; below is a random part of those with a known target gene and a result. Of all reagents, 503 (2.4%) were called active. 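Raw plate light values, not normalised; calls rest on replicate z-scores that were not deposited; hits include reporter decreases as well as increases.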 Entries without a mark were called inactive. The numbers tell different reagents against one gene apart. Not given: the amount of reagent, the time to read-out.

gene	reagent no.	firefly Hh reporter signal, replicate 1	firefly Hh reporter signal, replicate 2	firefly Hh reporter signal, replicate 3	Renilla reference signal, replicate 1	Renilla reference signal, replicate 2
CG7483	1	1.69e5	2.48e5		6528	7069
CG16717	1	31298	62822	61888	4234	4076
CG13539	1	68454	58460		1513	5200
Tep1	1	65075	50805		1697	4659
CG31459	1	54842	2.26e5		12075	5424
rept	1	1.10e5 (active)	1.46e5		2626	2468
CG42340	1	7.11e5	5.86e5	2.49e5	39169	4954
CG42340	2	96000	2.85e5		3511	11403
CG42340	3	64928	1.54e5		1904	7626
CG15107	1	1.16e5	34998		3154	2167
ens	1	1.74e5	99683		6306	4107
CG42246	1	4.29e5	1.16e5		24362	3069
SIFa	1	85339	1.03e5		1892	6516
CG14111	1	37392	49990	56199	3767	3846
CG12688 (retired record)	1	68603	5.41e5	2.17e5	2834	3386
CG12688 (retired record)	2	96089	5.77e5	2.06e5	3798	4134
CG31102	1	7.42e5	1.95e5		36359	5794
CG12236	1	27364	37074		641	1042
CG12236	2	70512	1.62e5		1749	6868
ste24b	1	67532	81849		1349	5001
Cow	1	5.72e5	1.12e5		5000	5000
Cow	2	3.97e5	97366		23394	2902
CG9360	1	51766	2.79e5		1600	10973
Ubc10	1	49280	34725		956	3364
Ror	1	1.23e5	81707		3082	7024
Pc	1	68076	62614		2722	2552
CG12860	1	87824	42803		2186	3563
CG1304	1	1.25e5	2.56e5		4740	10832
CG8414	1	74490	55348		2295	3996
CG12995	1	73200	1.50e5		2055	6077
CG13862	1	8.75e5	2.03e5		43440	5062
RhoU	1	8.47e5	3.58e5		50483	7419
RhoU	2	55208	1.73e5		1296	6624
RhoU	3	1.19e5	7.59e5	3.08e5	3045	7492
Lnk	1	80470	95140		1721	2705
CG34175	1	1.06e5	99109		1798	7850
CG10353	1	79769	2.01e5		1339	8176
CG2256	1	1.89e5	3.79e5		6664	13186
CG9356	1	1.19e5	94597		4666	3984
Odj	1	1.61e5	86315		6417	3613
CG14125	1	35586	65547	56522	7016	3712
CG17121	1	5.62e5	1.11e5		30246	3289
Sur	1	60550	29133		2743	1117
CG17985	1	1.17e5	66427		3056	5837
CG11106	1	70099	1.60e5		1819	7164
asl	1	1.19e5	1.04e5		5776	4652
CG12728	1	78490	67720		2253	1648
Zw	1	86603	93332		2201	2491
CG7744	1	85798	54534		5545	2605
Fbxo42	1	63942	71612		2881	3191
cta	1	1.30e5	53570		4360	1906
CG4835	1	27692	35383		5340	3216
NaPi-T	1	1.03e5	61990		2480	4523
Asator	1	91512	2.13e5		3385	7874
scramb2	1	72096	49988		2084	3393
Frl	1	2.43e5			6077	
Frl	2	1.02e5			1812	3268
Frl	3	5.31e5	1.28e5	87590	6932	1946

Part of the list above, showing only “Renilla reference signal, replicate 1”:
Ror	3082
Pc	2722
CG12860	2186
